# Data from article PMC10492376.
# No constants are given. Whether binding was seen depends on the method and setting. In cells and extracts the contact can be indirect. Some results given as binding are weak or reduced against the parent protein; the word gives no strength.
# T1: Selenium-binding protein 1 (human (endogenous in BHT101)) (UniProt Q13228)
# T1 sequence: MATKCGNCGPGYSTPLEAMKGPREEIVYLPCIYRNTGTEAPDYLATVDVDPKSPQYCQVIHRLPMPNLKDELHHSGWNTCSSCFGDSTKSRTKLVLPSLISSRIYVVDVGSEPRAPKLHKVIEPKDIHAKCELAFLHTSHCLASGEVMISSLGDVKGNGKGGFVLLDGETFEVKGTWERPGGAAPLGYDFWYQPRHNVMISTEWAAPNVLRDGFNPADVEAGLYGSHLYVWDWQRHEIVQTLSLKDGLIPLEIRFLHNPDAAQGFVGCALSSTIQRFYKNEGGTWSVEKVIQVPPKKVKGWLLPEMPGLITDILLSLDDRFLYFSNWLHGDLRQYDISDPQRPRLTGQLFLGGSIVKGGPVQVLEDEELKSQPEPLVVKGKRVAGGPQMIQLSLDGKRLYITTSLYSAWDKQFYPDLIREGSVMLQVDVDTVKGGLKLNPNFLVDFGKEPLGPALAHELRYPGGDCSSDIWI
# B1: thioredoxin (protein, UniProt P10599 1-105)
# chain: MVKQIESKTAFQEALDAAGDKLVVVDFSATWCGPCKMIKPFFHSLSEKYSNVIFLEVDVDDCQDVASECEVKCMPTFQFFKKGQKVGEFSGANKEKLEATINELV
# Molecular target: T1, Selenium-binding protein 1 (human (endogenous in BHT101))
# Experiment: co-IP; BHT101 lysate (20 mM Tris-HCl pH 8.0, 150 mM NaCl, 1 mM EDTA, 0.5% Nonidet P-40); endogenous SBP1 immunoprecipitated with anti-SBP1 antibody, protein G-agarose beads, 4 °C, 8 h; normal mouse IgG as negative control; washed with 100 mM KCl, 0.05% NP40; blotted for SBP1 or TXN
binder,measurement,value
B1,binding,binds
